Results reported in PMC7239482.
No constants are given. Whether binding was seen depends on the method and setting. Binding seen in cells or lysates may run through a third protein. Sequences can lack the tags named with a protein.

Molecular target: T1, GST-SID-3 (C. elegans) (UniProt Q10925)
T1 sequence: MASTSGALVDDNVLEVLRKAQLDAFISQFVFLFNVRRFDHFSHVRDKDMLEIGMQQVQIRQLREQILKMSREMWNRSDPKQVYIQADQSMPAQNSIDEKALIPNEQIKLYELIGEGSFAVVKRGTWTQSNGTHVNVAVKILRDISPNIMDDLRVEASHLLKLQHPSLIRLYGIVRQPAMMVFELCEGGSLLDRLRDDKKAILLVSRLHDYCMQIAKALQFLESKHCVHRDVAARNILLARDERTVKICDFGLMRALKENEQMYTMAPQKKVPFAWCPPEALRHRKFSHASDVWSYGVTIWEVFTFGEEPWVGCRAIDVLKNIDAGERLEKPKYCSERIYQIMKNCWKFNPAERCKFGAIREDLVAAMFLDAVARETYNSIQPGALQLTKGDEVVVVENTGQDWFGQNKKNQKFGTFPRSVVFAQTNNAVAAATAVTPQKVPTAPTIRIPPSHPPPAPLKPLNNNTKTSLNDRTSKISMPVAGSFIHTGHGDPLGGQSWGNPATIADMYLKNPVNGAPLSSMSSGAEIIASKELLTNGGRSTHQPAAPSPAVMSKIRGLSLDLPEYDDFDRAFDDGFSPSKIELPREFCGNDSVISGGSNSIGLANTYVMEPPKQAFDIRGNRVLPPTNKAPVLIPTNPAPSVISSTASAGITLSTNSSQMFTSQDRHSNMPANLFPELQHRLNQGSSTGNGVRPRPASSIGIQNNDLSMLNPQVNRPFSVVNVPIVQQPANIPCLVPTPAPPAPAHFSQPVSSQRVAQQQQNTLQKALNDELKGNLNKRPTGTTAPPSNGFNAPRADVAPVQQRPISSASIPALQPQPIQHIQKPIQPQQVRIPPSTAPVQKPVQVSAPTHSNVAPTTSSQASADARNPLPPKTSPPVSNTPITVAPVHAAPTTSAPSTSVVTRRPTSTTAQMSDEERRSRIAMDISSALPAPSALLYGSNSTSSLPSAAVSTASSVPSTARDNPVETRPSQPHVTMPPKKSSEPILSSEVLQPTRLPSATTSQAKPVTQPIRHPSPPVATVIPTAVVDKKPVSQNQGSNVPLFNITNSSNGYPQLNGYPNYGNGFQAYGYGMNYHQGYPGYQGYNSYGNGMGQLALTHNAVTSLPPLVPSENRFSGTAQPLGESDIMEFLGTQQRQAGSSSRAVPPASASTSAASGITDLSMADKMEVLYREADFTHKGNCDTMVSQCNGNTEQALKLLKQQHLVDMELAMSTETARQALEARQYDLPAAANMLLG
Test: pull-down; GST fusion on glutathione sepharose 4B beads; in vitro translated HA-tagged protein (15 μL TNT mix in 700 μL binding buffer) bound at 4°C overnight; washes in 50 mM Tris pH 8.0, 300 mM NaCl, 0.2% NP-40, 1 mM DTT; anti-HA blot; only the target purified

B1: HA-RAB-10(Q68L) (protein, UniProt Q94148 1-201)
chain: MARRPYDMLFKLLLIGDSGVGKTCILYRFSDDAFNTTFISTIGIDFKIKTIELKGKKIKLQIWDTAGLERFHTITTSYYRGAMGIMLVYDITNAKSFDNIAKWLRNIDEHASEDVVKMILGNKCDMSDRRVVSRERGEKIAQDHGISFHETSAKLNVHVDTAFYDLAEAILAKMPDSTDEQSRDTVNPVQPQRQSSSGGCC
binding: no binding
